The other results are listed elsewhere or left out.
Each target was assayed with COc1ccc(Cn2ccc3ccc(C(=O)NO)cc32)cc1 (assay: dose-dependent thermal stabilisation call (2D-TPP, DLPTP, 10% FDR) (binary (1 = stabilised)); higher = stabilised by the compound). Conditions: system: HL-60 intact cells; concentration range 0.04-10 µM.

The chains behind the UniProt entries cited, without tags or fusion partners. Where a name states a change or a piece, a line headed by the entry shows the natural chain unless it says otherwise.
UniProt P99999: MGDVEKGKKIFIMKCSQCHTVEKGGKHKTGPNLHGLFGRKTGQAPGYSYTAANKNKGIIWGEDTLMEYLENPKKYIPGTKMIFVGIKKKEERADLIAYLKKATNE
UniProt Q6P3S1: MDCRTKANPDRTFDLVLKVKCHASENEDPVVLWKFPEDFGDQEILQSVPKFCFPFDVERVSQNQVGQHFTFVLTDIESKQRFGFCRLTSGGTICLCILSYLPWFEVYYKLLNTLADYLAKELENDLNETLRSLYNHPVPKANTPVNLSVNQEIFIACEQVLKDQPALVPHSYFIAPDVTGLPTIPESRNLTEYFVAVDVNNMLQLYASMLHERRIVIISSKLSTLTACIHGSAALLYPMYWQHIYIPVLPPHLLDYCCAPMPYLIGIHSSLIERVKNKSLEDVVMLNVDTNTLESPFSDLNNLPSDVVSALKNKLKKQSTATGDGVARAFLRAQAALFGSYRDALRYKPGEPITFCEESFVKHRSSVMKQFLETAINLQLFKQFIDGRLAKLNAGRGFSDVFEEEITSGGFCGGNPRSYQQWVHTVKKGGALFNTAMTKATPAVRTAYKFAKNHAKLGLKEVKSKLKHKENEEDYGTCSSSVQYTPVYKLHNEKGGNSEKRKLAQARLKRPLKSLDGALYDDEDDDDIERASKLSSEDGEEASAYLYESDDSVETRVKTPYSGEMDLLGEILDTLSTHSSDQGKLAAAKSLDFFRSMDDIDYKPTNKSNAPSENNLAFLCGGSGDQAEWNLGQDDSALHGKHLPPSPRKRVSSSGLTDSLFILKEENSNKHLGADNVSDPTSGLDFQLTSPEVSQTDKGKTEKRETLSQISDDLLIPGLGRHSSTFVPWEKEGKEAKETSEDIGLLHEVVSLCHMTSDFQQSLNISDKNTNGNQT
UniProt O75064: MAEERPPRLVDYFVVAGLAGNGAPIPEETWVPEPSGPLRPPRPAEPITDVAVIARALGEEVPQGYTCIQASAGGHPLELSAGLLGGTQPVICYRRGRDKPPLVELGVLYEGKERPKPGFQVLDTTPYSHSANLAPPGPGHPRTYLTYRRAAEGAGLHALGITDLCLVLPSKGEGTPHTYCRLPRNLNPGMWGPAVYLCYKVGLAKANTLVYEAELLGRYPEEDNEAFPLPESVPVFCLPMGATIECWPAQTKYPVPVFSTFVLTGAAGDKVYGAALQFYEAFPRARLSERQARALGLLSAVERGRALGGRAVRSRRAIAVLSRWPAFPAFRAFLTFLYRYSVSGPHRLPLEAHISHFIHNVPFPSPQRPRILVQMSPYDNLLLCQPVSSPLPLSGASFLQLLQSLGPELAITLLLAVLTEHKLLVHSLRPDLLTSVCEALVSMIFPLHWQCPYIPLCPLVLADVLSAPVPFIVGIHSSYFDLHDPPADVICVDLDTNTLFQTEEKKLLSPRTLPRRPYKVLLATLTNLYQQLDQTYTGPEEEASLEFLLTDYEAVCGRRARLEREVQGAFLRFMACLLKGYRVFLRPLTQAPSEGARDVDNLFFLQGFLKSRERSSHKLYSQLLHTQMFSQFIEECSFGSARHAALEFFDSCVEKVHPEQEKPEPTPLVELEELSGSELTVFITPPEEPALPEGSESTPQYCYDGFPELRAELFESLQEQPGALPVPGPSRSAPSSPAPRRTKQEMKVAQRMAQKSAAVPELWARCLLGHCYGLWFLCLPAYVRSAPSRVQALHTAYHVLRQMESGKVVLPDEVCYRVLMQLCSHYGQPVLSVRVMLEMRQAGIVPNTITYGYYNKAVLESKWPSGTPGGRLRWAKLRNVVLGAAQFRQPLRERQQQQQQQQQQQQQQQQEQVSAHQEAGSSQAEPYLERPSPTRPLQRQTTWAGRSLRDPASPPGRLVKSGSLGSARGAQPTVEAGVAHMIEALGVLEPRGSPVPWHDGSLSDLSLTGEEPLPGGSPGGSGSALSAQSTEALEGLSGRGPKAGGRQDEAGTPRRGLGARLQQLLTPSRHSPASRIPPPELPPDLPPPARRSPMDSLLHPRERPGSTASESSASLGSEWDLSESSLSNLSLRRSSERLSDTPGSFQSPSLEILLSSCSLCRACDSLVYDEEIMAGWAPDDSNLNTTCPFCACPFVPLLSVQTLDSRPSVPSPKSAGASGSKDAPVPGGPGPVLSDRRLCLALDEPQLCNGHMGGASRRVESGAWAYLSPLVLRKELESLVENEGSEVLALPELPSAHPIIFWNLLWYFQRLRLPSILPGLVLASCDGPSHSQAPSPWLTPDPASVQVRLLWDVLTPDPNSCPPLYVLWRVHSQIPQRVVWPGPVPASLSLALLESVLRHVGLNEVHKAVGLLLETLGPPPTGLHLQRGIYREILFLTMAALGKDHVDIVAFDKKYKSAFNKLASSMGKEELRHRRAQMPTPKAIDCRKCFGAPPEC
UniProt Q8IY37: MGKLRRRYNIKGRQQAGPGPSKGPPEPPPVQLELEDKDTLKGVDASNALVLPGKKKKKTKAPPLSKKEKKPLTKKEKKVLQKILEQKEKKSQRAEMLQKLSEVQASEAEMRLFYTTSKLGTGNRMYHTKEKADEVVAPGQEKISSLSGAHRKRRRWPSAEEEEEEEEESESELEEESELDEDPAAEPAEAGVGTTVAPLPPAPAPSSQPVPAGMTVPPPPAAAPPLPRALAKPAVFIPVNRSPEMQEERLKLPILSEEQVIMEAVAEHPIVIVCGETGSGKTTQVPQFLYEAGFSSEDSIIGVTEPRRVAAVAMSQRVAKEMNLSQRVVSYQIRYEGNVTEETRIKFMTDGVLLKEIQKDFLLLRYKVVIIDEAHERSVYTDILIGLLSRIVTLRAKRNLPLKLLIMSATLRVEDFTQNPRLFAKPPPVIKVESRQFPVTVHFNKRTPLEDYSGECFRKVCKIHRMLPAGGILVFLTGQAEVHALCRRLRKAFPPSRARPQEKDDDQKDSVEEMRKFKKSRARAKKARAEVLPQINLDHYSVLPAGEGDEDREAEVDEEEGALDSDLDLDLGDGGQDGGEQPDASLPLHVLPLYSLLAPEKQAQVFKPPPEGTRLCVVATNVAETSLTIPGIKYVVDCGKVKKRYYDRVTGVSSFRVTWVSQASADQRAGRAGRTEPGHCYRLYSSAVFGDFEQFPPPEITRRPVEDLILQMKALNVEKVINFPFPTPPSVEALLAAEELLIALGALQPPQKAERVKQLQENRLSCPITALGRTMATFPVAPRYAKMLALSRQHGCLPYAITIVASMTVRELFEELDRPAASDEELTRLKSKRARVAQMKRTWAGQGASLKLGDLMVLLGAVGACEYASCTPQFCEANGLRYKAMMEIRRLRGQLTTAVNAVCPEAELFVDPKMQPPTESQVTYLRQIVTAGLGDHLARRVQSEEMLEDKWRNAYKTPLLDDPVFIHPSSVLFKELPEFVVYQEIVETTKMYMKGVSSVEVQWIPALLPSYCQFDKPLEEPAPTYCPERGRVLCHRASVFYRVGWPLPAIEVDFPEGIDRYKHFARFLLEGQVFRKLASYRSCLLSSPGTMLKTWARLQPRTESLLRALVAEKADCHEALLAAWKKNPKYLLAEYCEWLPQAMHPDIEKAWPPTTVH
UniProt P08311: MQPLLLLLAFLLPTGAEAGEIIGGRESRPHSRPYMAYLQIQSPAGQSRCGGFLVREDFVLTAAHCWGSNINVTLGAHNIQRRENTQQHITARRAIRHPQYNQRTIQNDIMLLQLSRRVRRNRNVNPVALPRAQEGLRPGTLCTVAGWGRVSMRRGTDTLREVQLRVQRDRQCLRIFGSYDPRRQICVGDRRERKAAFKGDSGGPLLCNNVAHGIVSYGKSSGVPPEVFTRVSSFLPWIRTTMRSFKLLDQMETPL
UniProt Q9UER7, whole entry: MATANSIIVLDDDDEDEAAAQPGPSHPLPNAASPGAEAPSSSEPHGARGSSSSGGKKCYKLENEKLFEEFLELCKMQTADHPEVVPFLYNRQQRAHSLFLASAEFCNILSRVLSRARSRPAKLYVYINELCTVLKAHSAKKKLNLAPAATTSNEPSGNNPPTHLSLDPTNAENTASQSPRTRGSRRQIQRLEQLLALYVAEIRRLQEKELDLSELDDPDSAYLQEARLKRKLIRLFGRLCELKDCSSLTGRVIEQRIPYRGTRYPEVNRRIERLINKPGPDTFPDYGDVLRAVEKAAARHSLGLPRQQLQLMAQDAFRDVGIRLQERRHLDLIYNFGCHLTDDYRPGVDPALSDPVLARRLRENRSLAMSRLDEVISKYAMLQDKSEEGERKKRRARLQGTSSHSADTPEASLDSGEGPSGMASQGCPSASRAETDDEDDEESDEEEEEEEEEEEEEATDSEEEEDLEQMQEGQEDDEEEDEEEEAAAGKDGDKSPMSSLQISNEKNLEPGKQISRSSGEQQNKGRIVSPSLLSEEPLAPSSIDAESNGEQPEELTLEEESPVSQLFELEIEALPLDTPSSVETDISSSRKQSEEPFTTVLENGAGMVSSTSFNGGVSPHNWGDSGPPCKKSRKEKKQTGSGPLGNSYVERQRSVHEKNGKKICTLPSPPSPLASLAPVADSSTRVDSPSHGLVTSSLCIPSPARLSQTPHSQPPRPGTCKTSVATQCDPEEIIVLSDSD
UniProt O00571: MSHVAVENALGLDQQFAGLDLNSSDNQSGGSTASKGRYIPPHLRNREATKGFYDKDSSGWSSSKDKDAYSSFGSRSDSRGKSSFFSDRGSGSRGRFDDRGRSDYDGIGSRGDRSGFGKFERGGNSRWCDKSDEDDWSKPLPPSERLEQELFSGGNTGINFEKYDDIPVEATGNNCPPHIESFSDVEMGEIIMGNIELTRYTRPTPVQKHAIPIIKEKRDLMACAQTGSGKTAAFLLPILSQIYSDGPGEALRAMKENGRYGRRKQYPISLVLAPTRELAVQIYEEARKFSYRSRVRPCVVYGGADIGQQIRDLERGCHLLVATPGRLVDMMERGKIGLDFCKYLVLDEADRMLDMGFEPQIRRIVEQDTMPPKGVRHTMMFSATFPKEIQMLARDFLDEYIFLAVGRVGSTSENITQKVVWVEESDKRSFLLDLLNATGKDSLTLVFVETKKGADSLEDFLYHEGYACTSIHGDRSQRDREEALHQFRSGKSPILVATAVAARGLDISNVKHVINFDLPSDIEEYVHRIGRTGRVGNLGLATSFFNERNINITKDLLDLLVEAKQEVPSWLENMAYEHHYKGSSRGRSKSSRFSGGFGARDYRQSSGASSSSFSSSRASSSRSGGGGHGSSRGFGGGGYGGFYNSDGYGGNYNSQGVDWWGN
UniProt O75575: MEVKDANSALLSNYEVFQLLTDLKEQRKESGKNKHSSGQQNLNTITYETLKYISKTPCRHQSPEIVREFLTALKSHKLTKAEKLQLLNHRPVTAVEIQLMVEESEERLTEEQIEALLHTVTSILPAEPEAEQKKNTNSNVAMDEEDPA
UniProt Q9Y2Z9: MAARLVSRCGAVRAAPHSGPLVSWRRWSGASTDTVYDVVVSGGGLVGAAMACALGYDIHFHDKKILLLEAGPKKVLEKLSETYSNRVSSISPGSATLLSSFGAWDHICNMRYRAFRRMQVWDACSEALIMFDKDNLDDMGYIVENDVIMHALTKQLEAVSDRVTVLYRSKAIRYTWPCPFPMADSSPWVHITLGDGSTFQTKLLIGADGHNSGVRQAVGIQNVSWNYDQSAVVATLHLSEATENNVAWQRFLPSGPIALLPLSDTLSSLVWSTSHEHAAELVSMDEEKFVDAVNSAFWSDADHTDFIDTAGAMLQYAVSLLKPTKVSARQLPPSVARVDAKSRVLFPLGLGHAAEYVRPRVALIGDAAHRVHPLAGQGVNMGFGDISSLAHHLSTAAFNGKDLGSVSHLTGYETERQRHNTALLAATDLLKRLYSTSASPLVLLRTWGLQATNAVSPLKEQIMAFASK
UniProt Q9H0A8, whole entry: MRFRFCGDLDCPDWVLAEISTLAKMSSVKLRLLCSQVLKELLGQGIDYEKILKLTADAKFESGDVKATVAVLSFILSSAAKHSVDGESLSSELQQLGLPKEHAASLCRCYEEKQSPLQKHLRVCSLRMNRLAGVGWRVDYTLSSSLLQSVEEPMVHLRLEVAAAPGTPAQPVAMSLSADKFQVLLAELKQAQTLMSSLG
UniProt Q99807: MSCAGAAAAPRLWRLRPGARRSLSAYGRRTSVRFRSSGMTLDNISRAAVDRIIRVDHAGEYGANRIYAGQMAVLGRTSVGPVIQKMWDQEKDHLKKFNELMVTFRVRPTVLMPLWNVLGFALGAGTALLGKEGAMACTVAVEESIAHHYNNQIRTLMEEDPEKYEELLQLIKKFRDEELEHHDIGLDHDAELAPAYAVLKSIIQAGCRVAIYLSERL
UniProt Q9BPW9: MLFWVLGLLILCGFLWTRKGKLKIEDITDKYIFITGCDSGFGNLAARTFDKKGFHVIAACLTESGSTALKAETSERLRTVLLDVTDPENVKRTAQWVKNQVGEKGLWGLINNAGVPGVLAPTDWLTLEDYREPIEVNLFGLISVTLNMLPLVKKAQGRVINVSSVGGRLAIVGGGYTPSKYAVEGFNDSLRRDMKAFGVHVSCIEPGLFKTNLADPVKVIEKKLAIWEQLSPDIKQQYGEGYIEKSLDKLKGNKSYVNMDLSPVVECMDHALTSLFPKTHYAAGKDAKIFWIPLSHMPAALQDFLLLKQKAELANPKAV

Question: For COX1 (UniProt P23219), which “dose-dependent thermal stabilisation call” value is on record?
Answer: inactive: 0

Question: How did the “dose-dependent thermal stabilisation call” value turn out when CYCS (UniProt P99999) was run?
Answer: inactive: 0

Question: With CRELD2 (UniProt Q6UXH1) as the target, how does the “dose-dependent thermal stabilisation call” value read?
Answer: inactive: 0

Question: How did the “dose-dependent thermal stabilisation call” value turn out when DERL2 (UniProt Q9GZP9) was run?
Answer: inactive: 0

Question: How did the “dose-dependent thermal stabilisation call” value turn out when DENND1B (UniProt Q6P3S1) was run?
Answer: inactive: 0

Question: Which “dose-dependent thermal stabilisation call” value does the source give for DENND4B (UniProt O75064) here?
Answer: inactive: 0

Question: DHX37 (UniProt Q8IY37) was tested. Which “dose-dependent thermal stabilisation call” value did it give?
Answer: inactive: 0

Question: With DCK (UniProt P27707) as the target, how does the “dose-dependent thermal stabilisation call” value read?
Answer: inactive: 0

Question: How did the “dose-dependent thermal stabilisation call” value turn out when CYC1 (UniProt P08574) was run?
Answer: inactive: 0

Question: DERA (UniProt Q9Y315) was tested. Which “dose-dependent thermal stabilisation call” value did it give?
Answer: inactive: 0

Question: Which “dose-dependent thermal stabilisation call” value does the source give for DAG1 (UniProt Q14118) here?
Answer: inactive: 0

Question: With CSGLCA-T as the target, how does the “dose-dependent thermal stabilisation call” value read?
Answer: inactive: 0

Question: DCP1B (UniProt Q8IZD4) was tested. Which “dose-dependent thermal stabilisation call” value did it give?
Answer: inactive: 0

Question: For CTSG (UniProt P08311), which “dose-dependent thermal stabilisation call” value is on record?
Answer: inactive: 0

Question: How did the “dose-dependent thermal stabilisation call” value turn out when DDX5 (UniProt P17844) was run?
Answer: inactive: 0

Question: With CXADR (UniProt P78310) as the target, how does the “dose-dependent thermal stabilisation call” value read?
Answer: inactive: 0

Question: How did the “dose-dependent thermal stabilisation call” value turn out when DHRS7B (UniProt Q6IAN0) was run?
Answer: inactive: 0

Question: CSTF3 (UniProt Q12996) was tested. Which “dose-dependent thermal stabilisation call” value did it give?
Answer: inactive: 0

Question: Which “dose-dependent thermal stabilisation call” value does the source give for DCI (UniProt P42126) here?
Answer: inactive: 0

Question: With DAXX (UniProt Q9UER7) as the target, how does the “dose-dependent thermal stabilisation call” value read?
Answer: inactive: 0

Question: Which “dose-dependent thermal stabilisation call” value does the source give for CSRP2BP (UniProt Q9H8E8) here?
Answer: inactive: 0

Question: Which “dose-dependent thermal stabilisation call” value does the source give for CRTC2 (UniProt Q53ET0) here?
Answer: inactive: 0

Question: With CRTAP (UniProt O75718) as the target, how does the “dose-dependent thermal stabilisation call” value read?
Answer: inactive: 0

Question: DAGLB (UniProt Q8NCG7) was tested. Which “dose-dependent thermal stabilisation call” value did it give?
Answer: inactive: 0

Question: For DDX3X (UniProt O00571), which “dose-dependent thermal stabilisation call” value is on record?
Answer: inactive: 0

Question: For DDX17 (UniProt Q92841), which “dose-dependent thermal stabilisation call” value is on record?
Answer: inactive: 0

Question: Which “dose-dependent thermal stabilisation call” value does the source give for COPG2 (UniProt Q9UBF2) here?
Answer: inactive: 0

Question: For CRELD1 (UniProt Q96HD1), which “dose-dependent thermal stabilisation call” value is on record?
Answer: inactive: 0

Question: With CRCP (UniProt O75575) as the target, how does the “dose-dependent thermal stabilisation call” value read?
Answer: inactive: 0

Question: With CSDE1 (UniProt O75534) as the target, how does the “dose-dependent thermal stabilisation call” value read?
Answer: inactive: 0

Question: With DDI2 (UniProt Q5TDH0) as the target, how does the “dose-dependent thermal stabilisation call” value read?
Answer: inactive: 0

Question: CTSD (UniProt P07339) was tested. Which “dose-dependent thermal stabilisation call” value did it give?
Answer: inactive: 0

Question: How did the “dose-dependent thermal stabilisation call” value turn out when DHX29 (UniProt Q7Z478) was run?
Answer: inactive: 0

Question: For COQ6 (UniProt Q9Y2Z9), which “dose-dependent thermal stabilisation call” value is on record?
Answer: inactive: 0

Question: How did the “dose-dependent thermal stabilisation call” value turn out when CSTF2 (UniProt P33240) was run?
Answer: inactive: 0

Question: COMMD4 (UniProt Q9H0A8) was tested. Which “dose-dependent thermal stabilisation call” value did it give?
Answer: inactive: 0

Question: COQ7 (UniProt Q99807) was tested. Which “dose-dependent thermal stabilisation call” value did it give?
Answer: inactive: 0

Question: With DHRS9 (UniProt Q9BPW9) as the target, how does the “dose-dependent thermal stabilisation call” value read?
Answer: inactive: 0

Source: the supplement of paper PMC7666118
